## Percent effect of library compounds

Protein sequences, listed by entry. Tags and fused reporters are not part of them. Residues count along the entry.
UniProt Q8IDJ8, 1-583: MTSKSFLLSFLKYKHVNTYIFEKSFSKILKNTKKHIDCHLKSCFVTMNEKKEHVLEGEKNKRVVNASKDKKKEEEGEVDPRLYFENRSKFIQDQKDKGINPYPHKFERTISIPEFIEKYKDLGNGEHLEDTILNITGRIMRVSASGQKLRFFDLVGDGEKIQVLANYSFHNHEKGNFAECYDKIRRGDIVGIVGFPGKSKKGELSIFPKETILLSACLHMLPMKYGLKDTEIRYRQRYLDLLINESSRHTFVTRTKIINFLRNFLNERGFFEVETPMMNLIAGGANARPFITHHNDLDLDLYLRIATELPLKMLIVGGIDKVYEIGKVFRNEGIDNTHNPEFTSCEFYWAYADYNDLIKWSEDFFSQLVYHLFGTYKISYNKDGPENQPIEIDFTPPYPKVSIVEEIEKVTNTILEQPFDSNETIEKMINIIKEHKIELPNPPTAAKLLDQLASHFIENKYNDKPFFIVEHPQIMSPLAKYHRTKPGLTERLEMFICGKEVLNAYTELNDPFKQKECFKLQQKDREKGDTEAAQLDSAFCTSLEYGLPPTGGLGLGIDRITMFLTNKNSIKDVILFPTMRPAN
UniProt I6X8D2, whole entry: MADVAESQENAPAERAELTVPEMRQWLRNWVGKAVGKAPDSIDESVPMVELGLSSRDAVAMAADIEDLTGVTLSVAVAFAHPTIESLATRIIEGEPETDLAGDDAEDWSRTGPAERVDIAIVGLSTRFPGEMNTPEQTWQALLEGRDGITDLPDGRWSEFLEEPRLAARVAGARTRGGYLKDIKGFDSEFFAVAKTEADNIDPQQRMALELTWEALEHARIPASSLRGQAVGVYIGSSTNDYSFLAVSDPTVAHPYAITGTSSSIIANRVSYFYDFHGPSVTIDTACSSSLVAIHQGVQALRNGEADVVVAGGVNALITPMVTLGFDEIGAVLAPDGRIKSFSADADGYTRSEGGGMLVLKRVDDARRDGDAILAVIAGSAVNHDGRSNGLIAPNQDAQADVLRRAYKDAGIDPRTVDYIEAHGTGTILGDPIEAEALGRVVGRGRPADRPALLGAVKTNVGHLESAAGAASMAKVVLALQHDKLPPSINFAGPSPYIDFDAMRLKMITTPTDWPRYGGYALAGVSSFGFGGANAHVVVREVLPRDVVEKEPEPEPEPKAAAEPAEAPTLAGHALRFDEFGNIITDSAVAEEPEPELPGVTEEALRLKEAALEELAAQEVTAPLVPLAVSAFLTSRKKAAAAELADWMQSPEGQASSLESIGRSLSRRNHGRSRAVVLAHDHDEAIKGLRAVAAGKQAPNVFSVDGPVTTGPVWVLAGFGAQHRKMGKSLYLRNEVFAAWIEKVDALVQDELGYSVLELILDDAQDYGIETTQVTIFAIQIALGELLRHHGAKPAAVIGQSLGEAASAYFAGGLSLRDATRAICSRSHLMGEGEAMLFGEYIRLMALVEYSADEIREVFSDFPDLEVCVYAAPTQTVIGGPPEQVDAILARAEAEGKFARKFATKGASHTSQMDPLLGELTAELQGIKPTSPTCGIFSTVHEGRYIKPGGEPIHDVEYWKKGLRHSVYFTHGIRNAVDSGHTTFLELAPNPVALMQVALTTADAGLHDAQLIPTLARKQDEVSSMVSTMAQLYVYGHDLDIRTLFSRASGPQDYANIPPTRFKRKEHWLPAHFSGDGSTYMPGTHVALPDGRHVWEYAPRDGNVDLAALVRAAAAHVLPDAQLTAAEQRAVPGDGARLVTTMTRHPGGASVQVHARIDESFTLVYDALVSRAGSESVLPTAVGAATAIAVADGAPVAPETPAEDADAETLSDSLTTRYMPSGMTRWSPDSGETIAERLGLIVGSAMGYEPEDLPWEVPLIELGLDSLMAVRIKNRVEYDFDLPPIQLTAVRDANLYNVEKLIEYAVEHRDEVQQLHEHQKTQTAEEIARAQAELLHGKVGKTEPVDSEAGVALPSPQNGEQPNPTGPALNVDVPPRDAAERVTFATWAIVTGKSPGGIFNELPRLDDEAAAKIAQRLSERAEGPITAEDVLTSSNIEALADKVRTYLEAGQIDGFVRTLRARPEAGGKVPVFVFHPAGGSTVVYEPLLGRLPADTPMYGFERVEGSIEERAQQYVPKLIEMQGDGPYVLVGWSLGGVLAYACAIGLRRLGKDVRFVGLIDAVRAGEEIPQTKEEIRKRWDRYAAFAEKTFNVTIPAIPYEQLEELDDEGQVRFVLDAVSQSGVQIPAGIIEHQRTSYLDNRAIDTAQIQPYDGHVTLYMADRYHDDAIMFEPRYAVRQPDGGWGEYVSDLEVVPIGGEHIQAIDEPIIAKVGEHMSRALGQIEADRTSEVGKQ
UniProt P9WNZ1, whole entry: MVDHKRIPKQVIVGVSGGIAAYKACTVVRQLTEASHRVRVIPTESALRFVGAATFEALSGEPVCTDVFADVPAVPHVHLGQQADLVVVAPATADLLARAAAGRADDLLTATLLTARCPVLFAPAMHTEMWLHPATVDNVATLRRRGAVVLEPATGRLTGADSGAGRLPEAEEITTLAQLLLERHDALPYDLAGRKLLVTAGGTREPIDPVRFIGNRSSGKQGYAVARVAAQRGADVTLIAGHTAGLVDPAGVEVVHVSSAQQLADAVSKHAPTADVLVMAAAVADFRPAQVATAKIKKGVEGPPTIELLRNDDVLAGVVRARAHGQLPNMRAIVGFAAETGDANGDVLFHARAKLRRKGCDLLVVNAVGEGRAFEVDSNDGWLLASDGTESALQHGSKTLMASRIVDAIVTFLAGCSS
UniProt Q4DA54, 1-478: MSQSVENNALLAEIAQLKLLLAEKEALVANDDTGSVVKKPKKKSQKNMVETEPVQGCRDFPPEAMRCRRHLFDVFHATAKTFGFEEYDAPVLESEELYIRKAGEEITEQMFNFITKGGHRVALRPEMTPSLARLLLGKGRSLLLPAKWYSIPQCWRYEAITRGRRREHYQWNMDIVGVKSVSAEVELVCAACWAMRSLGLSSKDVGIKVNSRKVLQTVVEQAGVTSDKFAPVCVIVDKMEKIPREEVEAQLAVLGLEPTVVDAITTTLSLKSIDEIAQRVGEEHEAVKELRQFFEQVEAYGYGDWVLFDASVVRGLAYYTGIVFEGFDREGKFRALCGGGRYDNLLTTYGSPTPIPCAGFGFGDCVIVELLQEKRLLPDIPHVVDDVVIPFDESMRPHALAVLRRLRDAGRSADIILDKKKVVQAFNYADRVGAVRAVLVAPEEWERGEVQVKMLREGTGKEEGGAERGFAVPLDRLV
UniProt P9WFT3, whole entry: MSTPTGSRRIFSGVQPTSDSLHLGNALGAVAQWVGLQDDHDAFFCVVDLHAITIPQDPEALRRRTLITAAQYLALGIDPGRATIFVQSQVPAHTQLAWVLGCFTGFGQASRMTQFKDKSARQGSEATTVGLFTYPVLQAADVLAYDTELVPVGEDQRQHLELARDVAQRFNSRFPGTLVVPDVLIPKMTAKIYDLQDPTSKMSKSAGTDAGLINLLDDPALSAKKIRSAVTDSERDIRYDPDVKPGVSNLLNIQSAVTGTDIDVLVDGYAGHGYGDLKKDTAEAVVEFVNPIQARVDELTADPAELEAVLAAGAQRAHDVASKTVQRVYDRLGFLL
UniProt P9WPC5, whole entry: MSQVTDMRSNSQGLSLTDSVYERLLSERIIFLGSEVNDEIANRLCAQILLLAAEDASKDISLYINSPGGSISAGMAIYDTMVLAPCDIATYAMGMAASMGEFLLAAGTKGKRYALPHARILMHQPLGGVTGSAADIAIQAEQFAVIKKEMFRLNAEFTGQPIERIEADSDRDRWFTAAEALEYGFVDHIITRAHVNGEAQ
UniProt P9WPC3, whole entry partner: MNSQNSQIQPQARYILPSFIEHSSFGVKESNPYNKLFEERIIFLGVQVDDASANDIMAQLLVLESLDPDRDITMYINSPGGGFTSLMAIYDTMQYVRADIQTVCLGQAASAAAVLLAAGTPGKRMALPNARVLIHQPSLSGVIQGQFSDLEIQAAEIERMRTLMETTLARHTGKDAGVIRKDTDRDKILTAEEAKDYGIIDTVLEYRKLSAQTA

Source: ChEMBL document CHEMBL3988442, “University of Dundee, Small-Polar-MMV Screening Library” (2021).

PfKRS1: 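Enzyme assay of the cytosolic lysyl-tRNA synthetase in 384-well plates, read by luminescence. Target: Lysine-tRNA ligase, Plasmodium falciparum 3D7 (UniProt Q8IDJ8). Tested at 30 µM. Direction is inferred from only a few compounds that gave an IC50; most scored high, so higher reads as stronger inhibition. Of about 69,000 compounds tested this way, about 49 (0.071%) reached 50% or more in at least one test.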
Pks13 thioesterase: 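Polyketide synthase Pks13, Mycobacterium tuberculosis (UniProt I6X8D2). Enzyme assay of the thioesterase domain of polyketide synthase 13; the read-out is not stated. Tested at 30 µM. Higher reads as stronger inhibition (inferred from which compounds were picked for retests). About 67,000 compounds were tested under these conditions; 0.46% (about 300) showed 50% or more at least once.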
CoaBC: 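Coenzyme A biosynthesis protein CoaBC, Mycobacterium tuberculosis (UniProt P9WNZ1). Enzyme assay of CoaBC with a phosphate dye (Biomol Green) read at 650 nm. Compounds at 30 µM. Higher reads as stronger inhibition, judged from the few compounds that gave an IC50. Most strong results did not repeat in a second test. About 67,000 compounds were tested under these conditions; 0.06% (about 40) showed 50% or more at least once.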
TcHisRS: 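Histidine-tRNA ligase, Trypanosoma cruzi CL Brener (UniProt Q4DA54). Enzyme assay of histidyl-tRNA synthetase; the read-out is not stated. Concentration: 30 µM. Higher reads as stronger inhibition (inferred: compounds with an IC50 in retests scored well above the rest). About 69,000 compounds were tested under these conditions; 0.045% (about 31) showed 50% or more at least once.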
MtTrpRS: 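Tryptophan-tRNA ligase, Mycobacterium tuberculosis (UniProt P9WFT3). Enzyme assay of tryptophanyl-tRNA synthetase; the read-out is not stated. Concentration: 10 µM. Direction is not recorded; retested compounds ran higher, which suggests that high means inhibition. Of about 65,000 compounds tested this way, about 64 (0.098%) reached 50% or more in at least one test.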
ClpP1P2: 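ClpP1P2, Mycobacterium tuberculosis (UniProt P9WPC5 and UniProt P9WPC3). Protease assay of ClpP1P2, read by the AMC dye that it sets free. Tested at 50 µM. Higher reads as stronger inhibition, judged from the few compounds that gave an IC50. Most other retested compounds had strongly negative values. About 69,000 compounds were tested under these conditions; 0.015% (about 10) showed 50% or more at least once.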

The filed quantity is “Percent Effect” (%).
The record does not define 0% and 100%; most values in the screen are far below 50% and negative numbers occur (in some assays of this library far below -100).
Compounds were drawn at random from those tested, without regard to their results.
A dash means the value is not listed here; it may have been measured.

compound	PfKRS1	Pks13 thioesterase	CoaBC	TcHisRS	MtTrpRS	ClpP1P2
O=C(N1CCCC1)N1CCn2c(Cn3cccn3)cnc2C1	4.691	-1.244	3.046	-0.9852	-5.021	-2.288
O=C(NC1CC(=O)N(C2CC2)C1)c1cccs1 (stereo not drawn)	-5.245	22.12	-8.403	2.222	16.47	6.105
N#Cc1cccc(OCCN2CCNC(=O)C2c2cccs2)c1 (stereo not drawn)	9.67	0.629	-1.459	8.808	1.583	-107.7
CC(C(=O)Nc1ccccc1F)S(C)(=O)=O (stereo not drawn)	1.155	-14.76	-1.263	-3.509	-0.2867	4.111
COC(=O)CC(C)(C)CC(=O)N1CCC(C(F)(F)F)CC1	4.805	7.165	1.519	1.22	-1.84	-2.571
CCS(=O)(=O)N1CC[C@H]2O[C@@H](c3nnc(C)o3)CC[C@H]21	-2.369	-20.18	4.315	2.956	-7.984	-12.21
O=C1CCC(=O)N1CCN1CCC(=Cc2ccccc2)CC1	2.812	-8.595	-0.2451	5.952	2.346	-6.837
Cc1cc(C(=O)N2CCCC(C)C2)ccc1NCc1nc(C2CC2)no1 (stereo not drawn)	-0.8151	-14.65	2.71	6.897	-6.134	-2.342
Cc1nc(Cn2c(=O)cnc3ccccc32)n(C)n1	1.42	-40.82	4.087	0	-2.719	-8.739
Cc1ccc(CN2CCCn3c(nc(Cn4cncn4)cc3=O)C2)s1	7.932	-4.691	-3.475	2.732	-0.4794	1.655
O=C(c1cc(=O)[nH]c(=O)[nH]1)N1CCCC(CO)(CC2CC2)C1 (stereo not drawn)	-0.6257	-2.271	0.6165	3.509	0.9009	-6.66
CN1CCN(C(=O)c2ccc3c(c2)[nH]c(=O)n3C2CCCC2)CC1	-0.7965	1.15	-4.4	5.747	16.37	3.911
Cc1nc(CN2CCC23CCN(Cc2ccco2)CC3)cs1	6.1	-22.89	7.921	15.47	-	-10.42
COc1cc(S(=O)(=O)N2CCc3ccc(F)cc32)cc(C(=O)O)c1OC	6.951	-1.584	-1.173	-3.396	4.983	-5.309
COc1nn(C)c2c1CCCN(S(=O)(=O)c1ccccc1F)C2	8.486	5.01	10.75	3.261	3.314	3.065
CN(C)c1ccccc1C(=O)N1C[C@@H](CN2CCC(O)CC2)[C@@H](CO)C1	1.14	-13.5	3.016	-1.508	-2.536	0.3001
CC(C)C1CN(C(=O)c2ccn(C)c(=O)c2)c2ccccc2N1 (stereo not drawn)	2.778	-5.189	5.374	3.097	-2.694	0.3729
COc1ccc(-c2noc(Cn3cnc(C)c3)n2)c(OC)c1OC	4.652	-31.59	0.4132	6.358	-2.564	7.482
CN1CCCC2(CC1)CCN(C(=O)CCc1ccccc1F)CC2	3.185	-10.98	5.535	33.33	-3.194	-15.25
O=C(CNC(=O)Nc1cccc(-c2nccs2)c1)NCCO	4.093	-13.44	3.182	4.865	-0.8922	1.035
CN1C(=O)C(c2ccccc2)CC12CCN(CCN)CC2 (stereo not drawn)	5.904	-	7.257	18.39	-0.3549	-2.078
CCCc1nnc(NC(=O)N2CCCC(NC(C)=O)C2)s1 (stereo not drawn)	5.337	-23.57	3.672	5.102	-2.687	9.07
O=S1(=O)COCCN1CCOc1ccc(F)cc1	8.642	-	1.814	1.948	-5.693	4.609
Cc1cc(C)nc(N2CCCC2c2[nH]ncc2C(=O)N(C)C)n1 (stereo not drawn)	1.416	2.647	-4.785	1.55	-7.67	-6.925
Cc1cccc(Nc2noc3c2CN(C(=O)c2ccn(C)n2)CC3)c1C	0.7612	-0.3917	7.506	5.65	2.154	2.338
CC(=O)N1CCC(C(=O)NCCc2c[nH]c3cc(C)ccc23)CC1	-4.778	-8.757	-4.01	5.941	-1.447	0.3803
O=C(CCCc1nnc(-c2ccccc2)o1)N1CCN(CCO)CC1	2.667	-27.78	3.085	3.008	-0.236	-11.66
Cc1nc(NC(=O)NCc2cccnc2NCCN(C)C)sc1C	2.785	19.71	-23.25	0	-4.033	2.026
O=C(Nc1ccnc(OC2CCOC2)c1)C1CCC1 (stereo not drawn)	2.638	-1.123	-2.532	3.252	-5.308	-14.61
CCOC(=O)CC1CCCCN1C(=O)c1cccc2ccnn12 (stereo not drawn)	7.321	-5.721	10.14	-1.587	-0.6256	-1.742
Cc1nccn1Cc1nnc(C2CCCN(c3ncccn3)C2)n1C (stereo not drawn)	2.533	-26.95	-0.5109	-3.636	-0.3708	-6.446
O=C(c1ccc(O)c(Cl)c1)N1CCN(c2nccs2)CC1	4.691	13.02	1.269	3.139	2.647	-5.912
CC(C)(C(=O)O)S(=O)(=O)c1ccc(Br)cc1	2.49	-	-5.357	1.657	-0.9288	-4.023
O=C(NCCN1CCOCC1)c1ccc(-n2ccc3ccccc32)s1	-0.7846	23.3	2.915	3.261	2.977	2.234
COC(=O)[C@@H](NC(=O)c1snnc1-c1ccc(OC)cc1)C(C)C	2.667	-10.77	-11.2	5.699	-2.832	-6.922
Cc1nn(C)c2c(N3CCN(C(=O)C(C)C)CC3)ncnc12	4.246	-10.29	6.928	2.609	-4.145	7.816
CN(C)c1ncc2c(n1)CCCC2NC(=O)c1ccsc1 (stereo not drawn)	-1.185	-0.7895	-0.3636	4.082	-2.02	-13.93
Cc1cc(CN2CCC(CNC(=O)c3nccc4ccccc34)C2)[nH]n1 (stereo not drawn)	1.901	-24.84	10.13	5.932	-1.676	6.669
Cc1ccoc1C(=O)NCC(c1ccccc1Cl)N1CCOCC1 (stereo not drawn)	2.167	-28.28	0.9615	6.897	-1.146	4.541

The last 4 entries again:

{"compound": "Cc1nn(C)c2c(N3CCN(C(=O)C(C)C)CC3)ncnc12", "PfKRS1": 4.246, "Pks13 thioesterase": -10.29, "CoaBC": 6.928, "TcHisRS": 2.609, "MtTrpRS": -4.145, "ClpP1P2": 7.816}
{"compound": "CN(C)c1ncc2c(n1)CCCC2NC(=O)c1ccsc1", "stereo": "stereo not drawn", "PfKRS1": -1.185, "Pks13 thioesterase": -0.7895, "CoaBC": -0.3636, "TcHisRS": 4.082, "MtTrpRS": -2.02, "ClpP1P2": -13.93}
{"compound": "Cc1cc(CN2CCC(CNC(=O)c3nccc4ccccc34)C2)[nH]n1", "stereo": "stereo not drawn", "PfKRS1": 1.901, "Pks13 thioesterase": -24.84, "CoaBC": 10.13, "TcHisRS": 5.932, "MtTrpRS": -1.676, "ClpP1P2": 6.669}
{"compound": "Cc1ccoc1C(=O)NCC(c1ccccc1Cl)N1CCOCC1", "stereo": "stereo not drawn", "PfKRS1": 2.167, "Pks13 thioesterase": -28.28, "CoaBC": 0.9615, "TcHisRS": 6.897, "MtTrpRS": -1.146, "ClpP1P2": 4.541}